Patent publication US20170327494A1, “NON-INVASIVE VENTILATION WITH HIGH FREQUENCY OSCILLATIONS” (KONINKLIJKE PHILIPS N.V., priority 2014, published 2017)
Some entries share one result that the patent states for a list of compounds.

Assays:
Alternaria solani = Alternaria solani / tomato / leaf disc (early blight); type: in vivo; conditions: 200 ppm; tomato leaf disks cv. Baby, inoculated 2 days after application, assessed 5-7 days after application, vs untreated
[1] = test system: Botrvotinia fuckeliana (Botrvtis cinerea); experiment: Botryotinia fuckeliana (Botrytis cinerea) / liquid culture (gray mould); type: cell-based; conditions: 200 ppm; liquid culture (Vogels broth), growth inhibition determined photometrically 3-4 days after application
[2] = test system: Mycosphaerella arachidis (Cercospora arachidicola); experiment: Mycosphaerella arachidis (Cercospora arachidicola) / liquid culture (early leaf spot); type: cell-based; conditions: 200 ppm; liquid culture (PDB), growth inhibition determined photometrically 4-5 days after application
[3] = test system: Glomerella lacenarium (Colletotrichum lacenarium); experiment: Glomerella lagenarium (Colletotrichum lagenarium) / liquid culture (anthracnose); type: cell-based; conditions: 200 ppm; liquid culture (PDB), growth inhibition measured photometrically 3-4 days after application
[4] = test system: Blumeria raminis f. sp. tritici (Erysiphe raminis f. sp. tritici); experiment: Blumeria graminis f. sp. tritici / wheat / leaf disc preventative (powdery mildew on wheat); type: in vivo; conditions: 200 ppm; wheat leaf segments cv. Kanzler, inoculated 1 day after application, assessed 6-8 days after application, vs untreated
Pyrenophora teres = Pyrenophora teres / barley / leaf disc preventative (net blotch); type: in vivo; conditions: 200 ppm; barley leaf segments cv. Hasso, inoculated 2 days after application, assessed 5-7 days after application, vs untreated
[5] = test system: Monocraphella nivalis (Microdochium nivale); experiment: Monographella nivalis (Microdochium nivale) / liquid culture (foot rot cereals); type: cell-based; conditions: 200 ppm; liquid culture (PDB), growth inhibition determined photometrically 4-5 days after application
[6] = test system: Mycosphaerella raminicola (Septoria tritici); experiment: Mycosphaerella graminicola (Septoria tritici) / liquid culture (Septoria blotch); type: cell-based; conditions: 200 ppm; liquid culture (PDB), growth inhibition determined photometrically 4-5 days after application

Measured: disease control

N#C/C(=C1/SCC(c2cc(Cl)sc2Cl)S1)n1ccnc1 (centres unmarked) [I.h.25, (2E)-2-[4-(2,5-dichloro-3-thienyl)-1,3-dithiolan-2-ylidene]-2-imidazol-1-yl-acetonitrile]
at least 80%: all assays above
